{"source": "PubChem BioAssay AID743454 (Peter MacCallum Cancer Centre, 2014)", "screen": "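Knock-downs lowering viability or raising caspase 3/7 activity in vorinostat-treated resistant cells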 (primary screen)", "cell system": "human HCT116-VR colon cancer cells, selected for vorinostat resistance", "knock-down reagent": "siRNA pool against human genes, 40 nM siRNA pool", "time to read-out": "vorinostat for 24 h, read-out about 72 h after transfection", "challenge": "vorinostat at 2.5 µM final", "read-out": "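Cell viability by CellTiter-Fluor and caspase 3/7 activity by luminescence, each scaled to mock wells per plate, duplicates averaged, then robust z-scored over all plates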", "scale": "viability robust z-score: higher = more viable cells than screen typical; caspase robust z-score: higher = more caspase 3/7 activity than screen typical", "call rule": "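Hits are knock-downs in viability class RV1/RV2 or caspase class CA1/CA2, excluding ones that killed cells in the no-drug cell-count arm; hits then retested with single siRNAs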", "note": "This is an unselected part of about 18,000 reagents tested. Over the whole deposit, 450 (2.5%) are marked active. 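Single biological run; no consistent viability z cut-off exists, so the class columns, not z-scores, define the calls.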"}
{"gene":"LIN52","viability hit class":"no change","caspase hit class":"no change","viability robust z-score":0.44,"caspase robust z-score":1.38,"Outcome":"inactive"}
{"gene":"FAXDC2","viability hit class":"no change","caspase hit class":"no change","viability robust z-score":0.45,"caspase robust z-score":-0.22,"Outcome":"inactive"}
{"gene":"SOS2","viability hit class":"no change","caspase hit class":"no change","viability robust z-score":0.26,"caspase robust z-score":-1.21,"Outcome":"inactive"}
{"gene":"LILRA2","viability hit class":"no change","caspase hit class":"no change","viability robust z-score":-0.26,"caspase robust z-score":0.47,"Outcome":"inactive"}
{"gene":"ADARB2","viability hit class":"no change","caspase hit class":"no change","viability robust z-score":0.43,"caspase robust z-score":-0.72,"Outcome":"inactive"}
{"gene":"TTBK1","viability hit class":"no change","caspase hit class":"no change","viability robust z-score":-1.58,"caspase robust z-score":-0.76,"Outcome":"inactive"}
{"gene":"GRB7","viability hit class":"no change","caspase hit class":"no change","viability robust z-score":1.18,"caspase robust z-score":-0.06,"Outcome":"inactive"}
{"gene":"OXA1L","viability hit class":"no change","caspase hit class":"no change","viability robust z-score":0.33,"caspase robust z-score":-1.23,"Outcome":"inactive"}
{"gene":"ZFP82","viability hit class":"no change","caspase hit class":"no change","viability robust z-score":-1.16,"caspase robust z-score":0.41,"Outcome":"inactive"}
{"gene":"CDT1","viability hit class":"no change","caspase hit class":"no change","viability robust z-score":1.18,"caspase robust z-score":-0.56,"Outcome":"inactive"}
{"gene":"VPS26A","viability hit class":"no change","caspase hit class":"no change","viability robust z-score":0.26,"caspase robust z-score":-0.75,"Outcome":"inactive"}
{"gene":"USP18","viability hit class":"no change","caspase hit class":"no change","viability robust z-score":-1.09,"caspase robust z-score":0,"Outcome":"inactive"}

Only “caspase robust z-score”, for 2 of the entries above:
VPS26A: -0.75
USP18: 0

Continued:
{"gene":"THRB","viability hit class":"no change","caspase hit class":"no change","viability robust z-score":-0.14,"caspase robust z-score":-0.57,"Outcome":"inactive"}
{"gene":"RPS3A","viability hit class":"no change","caspase hit class":"no change","viability robust z-score":-4.62,"caspase robust z-score":-1.98,"Outcome":"inactive"}
{"gene":"CXCL12","viability hit class":"no change","caspase hit class":"no change","viability robust z-score":-1.07,"caspase robust z-score":0.98,"Outcome":"inactive"}
{"gene":"CNN1","viability hit class":"no change","caspase hit class":"no change","viability robust z-score":-0.48,"caspase robust z-score":1.27,"Outcome":"inactive"}
{"gene":"METTL1","viability hit class":"no change","caspase hit class":"no change","viability robust z-score":0.5,"caspase robust z-score":1.7,"Outcome":"inactive"}
{"gene":"PDE1B","viability hit class":"no change","caspase hit class":"no change","viability robust z-score":-1.21,"caspase robust z-score":0.1,"Outcome":"inactive"}
{"gene":"NLRC4","viability hit class":"no change","caspase hit class":"no change","viability robust z-score":-0.54,"caspase robust z-score":-0.26,"Outcome":"inactive"}
{"gene":"RAB3B","viability hit class":"no change","caspase hit class":"no change","viability robust z-score":-0.66,"caspase robust z-score":0.18,"Outcome":"inactive"}
{"gene":"UHRF1","viability hit class":"no change","caspase hit class":"no change","viability robust z-score":0.08,"caspase robust z-score":-0.34,"Outcome":"inactive"}
